# Results deposited as PubChem BioAssay AID686937 (Drosophila RNAi Screening Center, 2013).
# Aim: 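Genes in the fly needed for secretion of protein constitutively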 (primary screen)
# Cell system: Drosophila S2 cells expressing secreted horseradish peroxidase
# Reagent: long dsRNA against Drosophila genes
# Duration: about 5.5 days (5 days dsRNA, then 12 h reporter induction)
# Treatment: reporter expression induced after 5 days of dsRNA, read 12 h later; inducer not stated
# Read-out: 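After 5 days of dsRNA and 12 h of reporter induction, medium peroxidase read by chemiluminescence and scored as per-plate z-score; higher values mean more reporter released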
# Reading the numbers: z-score: higher = more reporter secreted into medium
# In all, the deposit lists about 23,000 reagents; below is a random part of those that have a named target and a result. 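Reduced-secretion tags in replicate 1 do not always agree with the z-scores; no criterion for assigning the tags was given.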 A plus sign joins genes that one reagent is predicted to hit. Further read-outs or replicates are left out here. Not stated in the record: the amount of reagent.
gene knocked down,dsRNA,"z-score, replicate 1","z-score, replicate 2","z-score, replicate 3","z-score, replicate 4"
Pepck1 (Phosphoenolpyruvate carboxykinase 1),DRSC07505,0.31,0.39,,
Topors (Topoisomerase I-interacting protein),DRSC06531,0.53,0.24,,
RpS5b (Ribosomal protein S5b),DRSC16173,0.16,-1.16,,
Cyp6g1 (Cytochrome P450 6g1),DRSC07386,0.27,0.29,,
CG5376,DRSC15782,-2.15,-0.05,,
Unc-115b + p24-2 + Unc-115a,DRSC16502,-0.01,0.19,,
CG30259,DRSC04164,0.02,0.05,,
CG30259,DRSC04165,0.08,0.04,,
nAChRalpha4 (nicotinic Acetylcholine Receptor alpha4),DRSC11925,0.19,-0.09,,
nAChRalpha4 (nicotinic Acetylcholine Receptor alpha4),DRSC11929,0.58,0.3,,
CG14676,DRSC12262,0.33,0.19,,
nvy (nervy),DRSC04705,0.26,0.06,0.33,0.36
CG33459,DRSC05615,0.17,0.24,,
CG18744,DRSC15381,0.03,0.25,,
Noc2 (Nucleolar complex protein 2),DRSC03165,-0.15,-0.27,,
mora (morgana),DRSC16594,0.32,0.31,,
Fitm (Fat storage inducing transmembrane protein),DRSC09772,0.1,0.05,,
Corin,DRSC06818,0.31,0.41,0.95,0.93
CG6931,DRSC10750,0.21,0.38,,
CG13492,DRSC04137,0.24,0.35,,
elg1 (enhanced level of genomic instability 1),DRSC10229,0.36,0.5,,
ave (aveugle),DRSC05502,0.46,-0.14,,
CG2063,DRSC06811,-3.1,-2.77,,
CG12061,DRSC20715,-0.02,0.21,,
CG32440,DRSC11480,0.35,-0.01,,
Ctl2 (Choline transporter-like 2),DRSC14423,0.51,0.53,,
Arp3 (Actin-related protein 3),DRSC09669,0.47,0.39,,
lncRNA:CR42862 (long non-coding RNA:CR42862),DRSC08348,0.14,0.36,,
kdn (knockdown),DRSC18328,0.36,0.73,,
Cht6 (Chitinase 6),DRSC18001,0.33,0.5,,
Cht6 (Chitinase 6),DRSC18002,-0.56,-1.05,,
Cht6 (Chitinase 6),DRSC18253,0.37,-5.97,,
mthl5 (methuselah-like 5),DRSC16155,0.25,-0.11,,
IFT54 (Intraflagellar transport 54),DRSC15469,0.64,0.44,,
Vha16-5 (Vacuolar H[+] ATPase 16kD subunit 5),DRSC02986,0.88,0.49,,
CG8441,DRSC07180,0.17,0.5,,
CrzR (Corazonin receptor),DRSC09781,0.5,0.56,,
CrzR (Corazonin receptor),DRSC09782,-2.72,0.5,,
mRpL35 (mitochondrial ribosomal protein L35),DRSC14586,0.17,0.38,,
Acadvl (Acyl-CoA dehydrogenase very long chain),DRSC07022,-1.69,-2.08,,
CG31787,DRSC01632,-0.36,-0.27,,
CG12860,DRSC06200,0.13,0.18,,
CG15514,DRSC15053,0.27,0.01,,
Nepl12 (Neprilysin-like 12),DRSC16411,0.12,0.14,,

Quoted from above, 8 entries:
gene knocked down,dsRNA,"z-score, replicate 1","z-score, replicate 2","z-score, replicate 3","z-score, replicate 4"
Ctl2 (Choline transporter-like 2),DRSC14423,0.51,0.53,,
Arp3 (Actin-related protein 3),DRSC09669,0.47,0.39,,
lncRNA:CR42862 (long non-coding RNA:CR42862),DRSC08348,0.14,0.36,,
kdn (knockdown),DRSC18328,0.36,0.73,,
Cht6 (Chitinase 6),DRSC18001,0.33,0.5,,
Cht6 (Chitinase 6),DRSC18002,-0.56,-1.05,,
Cht6 (Chitinase 6),DRSC18253,0.37,-5.97,,
mthl5 (methuselah-like 5),DRSC16155,0.25,-0.11,,

The results go on.
gene knocked down,dsRNA,"z-score, replicate 1","z-score, replicate 2","z-score, replicate 3","z-score, replicate 4"
Nup93-1 (Nucleoporin 93kD-1),DRSC19344,-1.93,-0.65,,
CG13855,DRSC14705,0.28,0.53,,
Tsp96F (Tetraspanin 96F),DRSC14147,0.46,0.55,,
CG31926,DRSC00295,0.35,0.16,,
CG32845,DRSC07867,0.57,0.04,,
eff (effete),DRSC16940,-2.89,-3.35,,
CG14933 + CG42486,DRSC02415,0.2,0.42,,
CG12716,DRSC19493,0.45,0.56,,
CG5934,DRSC15922,0.13,0.12,,
CG1552,DRSC19665,0.37,0.35,,
Rbcn-3A (Rabconnectin-3A),DRSC18314,0.44,0.49,,
CG10417,DRSC04846,-0.22,-0.1,,
CG8814,DRSC00707,0.24,0.17,,
CG8138,DRSC16386,0.26,0.61,,
Lint-1 (l(3)mbt interacting protein 1),DRSC19822,0.54,0.43,,
Prx6a (Peroxiredoxin 6a),DRSC00565,0.4,0.52,,
CG46385,DRSC06425,-2.34,-1.21,,
CG46385,DRSC06557,0.31,0.3,,
peo (pendolino),DRSC05995,0.26,0.27,,
CG9853,DRSC12343,-3.46,0.38,0.27,-1.12
CG9853,DRSC22840,0.21,0.66,,
CG30349,DRSC06421,0.19,0.07,,
CG30349,DRSC06839,0.13,-0.23,,
CG14411,DRSC19597,0.32,0.4,,
Nhe2 (Na[+]/H[+] hydrogen exchanger 2),DRSC03172,0.27,0.27,,
Nhe2 (Na[+]/H[+] hydrogen exchanger 2),DRSC03377,0.53,-0.25,,
CG2061,DRSC19348,0.36,0.54,,
CG33998,DRSC05747,-0.16,-0.04,,
cnk (connector enhancer of ksr),DRSC07595,0.07,0.15,,
CG14417,DRSC18638,0.43,0.37,,
nbs,DRSC11373,0.29,0.03,,
CG4669,DRSC10440,0.5,0.39,,
Nacalpha (Nascent polypeptide associated complex protein alpha subunit),DRSC07477,-0.87,-0.69,,
ScpX,DRSC03430,0.13,0.18,,
Mgat3,DRSC01305,0.06,0.22,,
ND-B15 (NADH dehydrogenase (ubiquinone) B15 subunit),DRSC06199,0.32,0.17,,
Vps60 (Vacuolar protein sorting 60),DRSC10610,0.22,0.05,,
PIG-Q (Phosphatidylinositol glycan anchor biosynthesis class Q),DRSC19138,0.31,0.29,,
